From ChEMBL document CHEMBL3988442, “University of Dundee, Small-Polar-MMV Screening Library” (2021).

The chains behind the UniProt entries cited, without tags or fusion partners.
UniProt P9WPC5, whole entry: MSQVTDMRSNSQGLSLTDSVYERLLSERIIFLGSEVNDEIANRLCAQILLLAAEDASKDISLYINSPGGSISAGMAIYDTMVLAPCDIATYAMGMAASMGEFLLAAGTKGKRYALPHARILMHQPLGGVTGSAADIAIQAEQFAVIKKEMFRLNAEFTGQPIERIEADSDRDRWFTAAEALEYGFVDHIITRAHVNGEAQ
UniProt P9WPC3, whole entry partner: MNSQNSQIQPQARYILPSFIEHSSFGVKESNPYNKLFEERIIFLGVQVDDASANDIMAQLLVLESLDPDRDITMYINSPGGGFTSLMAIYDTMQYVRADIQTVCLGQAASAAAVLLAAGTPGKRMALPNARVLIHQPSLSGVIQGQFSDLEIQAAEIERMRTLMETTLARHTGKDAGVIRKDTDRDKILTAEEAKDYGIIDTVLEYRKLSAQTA
UniProt I6X8D2, whole entry: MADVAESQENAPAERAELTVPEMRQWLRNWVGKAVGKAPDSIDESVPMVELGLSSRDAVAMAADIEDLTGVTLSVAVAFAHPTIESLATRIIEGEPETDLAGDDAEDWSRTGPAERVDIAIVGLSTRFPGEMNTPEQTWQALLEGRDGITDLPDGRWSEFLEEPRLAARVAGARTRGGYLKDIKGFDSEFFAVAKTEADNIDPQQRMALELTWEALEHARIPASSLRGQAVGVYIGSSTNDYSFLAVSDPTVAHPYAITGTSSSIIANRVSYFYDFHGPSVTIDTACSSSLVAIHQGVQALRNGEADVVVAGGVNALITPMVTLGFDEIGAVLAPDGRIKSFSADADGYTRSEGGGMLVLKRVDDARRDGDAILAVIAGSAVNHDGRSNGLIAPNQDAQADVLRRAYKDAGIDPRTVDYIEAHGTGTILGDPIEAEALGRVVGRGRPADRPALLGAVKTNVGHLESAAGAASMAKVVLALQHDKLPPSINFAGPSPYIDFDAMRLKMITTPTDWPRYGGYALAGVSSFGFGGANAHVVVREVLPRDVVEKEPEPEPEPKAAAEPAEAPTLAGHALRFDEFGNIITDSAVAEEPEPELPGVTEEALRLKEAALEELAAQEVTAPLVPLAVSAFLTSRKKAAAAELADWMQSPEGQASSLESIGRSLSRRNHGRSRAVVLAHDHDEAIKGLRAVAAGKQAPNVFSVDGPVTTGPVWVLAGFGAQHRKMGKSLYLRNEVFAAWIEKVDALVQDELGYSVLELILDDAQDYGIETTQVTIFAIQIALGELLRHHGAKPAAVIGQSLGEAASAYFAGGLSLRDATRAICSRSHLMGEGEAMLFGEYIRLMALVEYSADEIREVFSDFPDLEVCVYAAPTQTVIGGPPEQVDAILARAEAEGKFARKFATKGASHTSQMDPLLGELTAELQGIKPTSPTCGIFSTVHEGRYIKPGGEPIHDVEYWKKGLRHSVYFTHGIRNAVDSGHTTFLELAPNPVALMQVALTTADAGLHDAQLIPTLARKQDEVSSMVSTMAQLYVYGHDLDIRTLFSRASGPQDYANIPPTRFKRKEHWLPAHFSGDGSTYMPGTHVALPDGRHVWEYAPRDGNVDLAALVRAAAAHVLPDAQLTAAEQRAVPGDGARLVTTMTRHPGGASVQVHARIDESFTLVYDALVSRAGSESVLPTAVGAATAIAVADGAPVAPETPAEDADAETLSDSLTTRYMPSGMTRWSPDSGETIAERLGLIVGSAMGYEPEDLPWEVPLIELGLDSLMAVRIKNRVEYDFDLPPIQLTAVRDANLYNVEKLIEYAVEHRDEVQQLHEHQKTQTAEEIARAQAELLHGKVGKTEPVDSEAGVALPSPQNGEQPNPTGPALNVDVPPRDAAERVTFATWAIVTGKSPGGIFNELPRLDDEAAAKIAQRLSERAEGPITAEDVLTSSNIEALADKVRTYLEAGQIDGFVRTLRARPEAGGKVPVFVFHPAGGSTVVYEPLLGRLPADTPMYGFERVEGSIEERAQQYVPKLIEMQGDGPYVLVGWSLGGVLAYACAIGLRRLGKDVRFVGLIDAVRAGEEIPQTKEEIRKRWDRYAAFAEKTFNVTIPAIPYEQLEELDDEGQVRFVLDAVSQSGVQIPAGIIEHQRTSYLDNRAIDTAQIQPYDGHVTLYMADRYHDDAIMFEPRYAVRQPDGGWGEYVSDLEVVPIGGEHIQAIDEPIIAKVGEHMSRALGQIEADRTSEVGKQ

Values are the deposited “Percent Effect”, in %.
How 0% and 100% were set is not recorded. Most values in the screen are low, and negative values occur.
Compounds were drawn at random from those tested, without regard to their results.

ClpP1P2: 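ClpP1P2, Mycobacterium tuberculosis (UniProt P9WPC5 and UniProt P9WPC3). Protease assay of ClpP1P2, read by the AMC dye that it sets free. Concentration: 50 µM. Direction is inferred from only a few compounds that gave an IC50; most scored high, so higher reads as stronger inhibition. Most other retested compounds had strongly negative values. Size under these conditions: about 69,000 compounds, about 10 of them at 50% or above in at least one test.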
Pks13 thioesterase: 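Enzyme assay of the thioesterase domain of polyketide synthase 13; the read-out is not stated. Target: Polyketide synthase Pks13, Mycobacterium tuberculosis (UniProt I6X8D2). Compounds at 30 µM. The record gives no direction; the compounds picked for IC50 retests had high values, so higher reads as stronger inhibition. About 67,000 compounds were tested under these conditions; 0.46% (about 300) showed 50% or more at least once.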

| # | Compound | ClpP1P2 | Pks13 thioesterase |
|---|---|---|---|
| 1 | `Cc1occc1C(=O)N1CCc2ncnc(-c3cnn(C)c3)c2CC1` | -24.38% | -4.504% |
| 2 | `O=C(c1cccnc1N1CCN(CCO)CC1)N1CCCC1` | 3.76% | -16.46% |
| 3 | `COC(=O)N1CCN2C[C@H](CO)[C@@H](c3ccccc3)[C@H]2C1` | -7.708% | -6.319% |
| 4 | `CC(C)S(=O)(=O)CCN1CCc2c(ncn2C2CC2)C1` | -5.987% | -3.773% |
| 5 | `COCc1noc(Cc2cc(Cl)c3c(c2)OCCCO3)n1` | 20.25% | -8.446% |
| 6 | `CCS(=O)(=O)N1Cc2c(Cn3cccc3)nn(C(C)C)c2C1` | -3.288% | 5.789% |
| 7 | `CC1(C(=O)N2CCOCC2)CN(Cc2ncc[nH]2)CCO1` (centres unmarked) | -5.657% | -11.41% |
| 8 | `O=C(NC1CCCC1)N1CCCCC1c1nc(C2CC2)no1` (centres unmarked) | -0.2911% | -8.628% |
| 9 | `O=C(NCc1ccc(Cl)cc1)[C@@H]1Cc2[nH]cnc2CN1CC1CC1` | -7.278% | -20.75% |
| 10 | `COCCS(=O)(=O)Nc1ccc(-n2cncn2)c(F)c1` | -15.59% | -12.03% |
| 11 | `COCC(=O)Nc1ccc2c(c1)CN(C(=O)c1ccco1)CC2` | 22.5% | -40.48% |
| 12 | `CNS(=O)(=O)c1ccc(C(=O)N2CCCCC2c2ccc(C)cc2)o1` (centres unmarked) | -34.53% | -10.64% |
| 13 | `CCOc1cc(CNC(=O)NC2CC=CC2)ccc1OC(F)F` | -2.287% | -18.96% |
| 14 | `CCc1nc(C2CCCN(C(=O)c3c(C)noc3C)C2)no1` (centres unmarked) | -43.25% | -11.35% |
| 15 | `CCN1CC(C(=O)NC(C)(C)CC)CC1=O` (centres unmarked) | -0.2451% | -33.16% |
| 16 | `Cc1cnn(CC2CCCN2C(=O)Cc2n[nH]c3ccccc23)c1` (centres unmarked) | -11.84% | -42.56% |
| 17 | `O=C1O[C@@H]2CN(S(=O)(=O)N3CCCC3)C[C@@H]2N1CCc1cccc(Cl)c1` | -3.513% | -40.87% |
| 18 | `COc1nc2c(cc1C(=O)NC(C)Cc1cnccn1)CCC2` (centres unmarked) | 5.872% | 15.03% |
| 19 | `CN(C)[C@H]1CCCCN(C(=O)c2cccc(N3CCS(=O)(=O)CC3)c2)C1` | -3.498% | -12.31% |
| 20 | `Cc1cc(C(=O)NCCN2CCCc3ccccc32)[nH]n1` | 6.728% | -23.93% |
| 21 | `CN(Cc1ccccn1)C(=O)C(c1ccccc1)N1CCSCC1` (centres unmarked) | 2.3% | -0.8208% |
| 22 | `O=C(NC1CC(=O)N(Cc2cccc(F)c2)C1)c1ccncc1` (centres unmarked) | -22.35% | -2.047% |
| 23 | `CCN1CCC(N2CCC(C(=O)N(C)C)CC2)CC1` | -6.751% | -10.95% |
| 24 | `N#Cc1cnc(N2CCC3(CC2)OCCO3)nc1N` | -0.1373% | 14.22% |
| 25 | `Fc1ccc(CNCC2OCCc3cn(CC4CC4)nc32)cc1` (centres unmarked) | -15.52% | -48.42% |
| 26 | `O=C(Nc1ccccc1)C1CN(C(=O)c2cccs2)CC12CCOCC2` (centres unmarked) | -22.66% | 5.207% |
| 27 | `Nc1cc(-c2ccc(C(=O)O)cc2O)c2cc[nH]c2n1` | -4.018% | 5.618% |
| 28 | `Cc1nc(-c2ccccc2F)sc1C(=O)N1CCN(C)CC1` | 6.391% | 5.484% |
| 29 | `Cc1ccc(C(=O)N2C[C@@H]3CCCO[C@@H]3[C@H](N(C)Cc3ccco3)C2)o1` | -10.27% | 3.55% |
| 30 | `COc1ccc2c(c1)CCCN(C(C)C(=O)NC(C)C)C2` (centres unmarked) | 4.248% | -48.12% |
| 31 | `Cc1c(CN2CC[C@@H](N3CCC(O)CC3)[C@H](O)C2)[nH]c2ccc(F)cc12` | -11.01% | -2.363% |
| 32 | `COCCc1noc(CN2CCC(c3ccccc3C(=O)O)C2)n1` (centres unmarked) | -2.619% | 16.17% |
| 33 | `CN(C)CCN(Cc1ccc(Cl)cc1)C(=O)c1ccn(C)c(=O)c1` | -2.415% | -10.66% |
| 34 | `O=C(Nc1ccc(F)cc1)C1CCc2ccccc2N1` (centres unmarked) | 2.652% | -2.04% |
| 35 | `CNC(=O)C1CCCN(C(=O)OC)C1` (centres unmarked) | 0.7968% | -11.17% |
| 36 | `CCOC(=O)C1CCN(C(=O)c2cnn(-c3ccc(C)cc3)c2N)CC1` | -4.214% | 8.158% |
| 37 | `Cc1nc(C)n(C2CCCN(C(=O)c3c[nH]c(C(C)C)n3)C2)n1` (centres unmarked) | -7.35% | 16.07% |
| 38 | `Cc1cccc(S(=O)(=O)N2C[C@H]3C[C@H](C(=O)NCC(C)C)[C@@H](C2)O3)c1` | 16.92% | -22.35% |
| 39 | `c1ccc(NC[C@@H]2CCC[C@@H]3CN(Cc4cc[nH]n4)C[C@@H]32)nc1` | -3.561% | -7.92% |
| 40 | `CCc1nnc2n1CCN(C(=O)CCOc1ccc(C)cc1C)C2` | -6.461% | -7.326% |
| 41 | `CN1CCC(N(CCc2ccccc2)C(=O)c2ccc(C#N)nc2)CC1` | -10.15% | -14.74% |
| 42 | `CN(CC1(O)CCN(c2ccccn2)C1)C(=O)Cc1ccsc1` (centres unmarked) | -6.47% | -3.939% |
| 43 | `Cc1cc(C(=O)N2CCCN(Cc3cnn(C(C)C)c3)CC2)no1` | -15.66% | -2.934% |
| 44 | `Cc1cnc2n(c1=O)CC(C(=O)NC1CC1)CS2` (centres unmarked) | -8.081% | -33.27% |
| 45 | `O=C(Cc1ccsc1)NC1CCc2c(ccc(=O)n2CC2CC2)C1` (centres unmarked) | -5.68% | -4.381% |
| 46 | `O=C(NCCc1ccccc1Cl)NCC1(O)CCSC1` (centres unmarked) | -5.115% | -6.542% |
| 47 | `O=C1CC(C(=O)NCCN2CCOC2=O)c2cc(F)ccc2N1` (centres unmarked) | -8.127% | -7.563% |
| 48 | `Cc1cc(NC(=O)NCCC(=O)N2CCCc3ccccc32)no1` | -0.4945% | -42.88% |
| 49 | `COc1ccc(NS(=O)(=O)CC2=NC(=O)n3cccc3C2=O)cc1Cl` | 0.2391% | -35.36% |
| 50 | `Cc1nc(N2CCC(CC(=O)N3CCCC3)CC2)c2cnn(C)c2n1` | -20.84% | -8.097% |
| 51 | `CC(NC(=O)c1cccc[n+]1[O-])C1CC1` (centres unmarked) | -4.681% | -33.07% |
| 52 | `COc1cccc(OCCc2nnc(NC(C)=O)s2)c1` | -2.696% | -15.57% |
| 53 | `Cn1ccnc1C(=O)N1CCC2(CC1)CC(Oc1cccnc1)CO2` (centres unmarked) | 1.325% | -15.22% |

For reference, 3 entries once more:

Compound	ClpP1P2	Pks13 thioesterase
O=C(Nc1ccc(F)cc1)C1CCc2ccccc2N1 (centres unmarked)	2.652%	-2.04%
Cc1cnn(CC2CCCN2C(=O)Cc2n[nH]c3ccccc23)c1 (centres unmarked)	-11.84%	-42.56%
COc1cccc(OCCc2nnc(NC(C)=O)s2)c1	-2.696%	-15.57%